# Reference: PubChem BioAssay AID2662 (National Center for Advancing Translational Sciences (NCATS), 2010)
# Amino acid sequences for entries named in this document (tags omitted).
# UniProt Q03164, whole entry, looked up: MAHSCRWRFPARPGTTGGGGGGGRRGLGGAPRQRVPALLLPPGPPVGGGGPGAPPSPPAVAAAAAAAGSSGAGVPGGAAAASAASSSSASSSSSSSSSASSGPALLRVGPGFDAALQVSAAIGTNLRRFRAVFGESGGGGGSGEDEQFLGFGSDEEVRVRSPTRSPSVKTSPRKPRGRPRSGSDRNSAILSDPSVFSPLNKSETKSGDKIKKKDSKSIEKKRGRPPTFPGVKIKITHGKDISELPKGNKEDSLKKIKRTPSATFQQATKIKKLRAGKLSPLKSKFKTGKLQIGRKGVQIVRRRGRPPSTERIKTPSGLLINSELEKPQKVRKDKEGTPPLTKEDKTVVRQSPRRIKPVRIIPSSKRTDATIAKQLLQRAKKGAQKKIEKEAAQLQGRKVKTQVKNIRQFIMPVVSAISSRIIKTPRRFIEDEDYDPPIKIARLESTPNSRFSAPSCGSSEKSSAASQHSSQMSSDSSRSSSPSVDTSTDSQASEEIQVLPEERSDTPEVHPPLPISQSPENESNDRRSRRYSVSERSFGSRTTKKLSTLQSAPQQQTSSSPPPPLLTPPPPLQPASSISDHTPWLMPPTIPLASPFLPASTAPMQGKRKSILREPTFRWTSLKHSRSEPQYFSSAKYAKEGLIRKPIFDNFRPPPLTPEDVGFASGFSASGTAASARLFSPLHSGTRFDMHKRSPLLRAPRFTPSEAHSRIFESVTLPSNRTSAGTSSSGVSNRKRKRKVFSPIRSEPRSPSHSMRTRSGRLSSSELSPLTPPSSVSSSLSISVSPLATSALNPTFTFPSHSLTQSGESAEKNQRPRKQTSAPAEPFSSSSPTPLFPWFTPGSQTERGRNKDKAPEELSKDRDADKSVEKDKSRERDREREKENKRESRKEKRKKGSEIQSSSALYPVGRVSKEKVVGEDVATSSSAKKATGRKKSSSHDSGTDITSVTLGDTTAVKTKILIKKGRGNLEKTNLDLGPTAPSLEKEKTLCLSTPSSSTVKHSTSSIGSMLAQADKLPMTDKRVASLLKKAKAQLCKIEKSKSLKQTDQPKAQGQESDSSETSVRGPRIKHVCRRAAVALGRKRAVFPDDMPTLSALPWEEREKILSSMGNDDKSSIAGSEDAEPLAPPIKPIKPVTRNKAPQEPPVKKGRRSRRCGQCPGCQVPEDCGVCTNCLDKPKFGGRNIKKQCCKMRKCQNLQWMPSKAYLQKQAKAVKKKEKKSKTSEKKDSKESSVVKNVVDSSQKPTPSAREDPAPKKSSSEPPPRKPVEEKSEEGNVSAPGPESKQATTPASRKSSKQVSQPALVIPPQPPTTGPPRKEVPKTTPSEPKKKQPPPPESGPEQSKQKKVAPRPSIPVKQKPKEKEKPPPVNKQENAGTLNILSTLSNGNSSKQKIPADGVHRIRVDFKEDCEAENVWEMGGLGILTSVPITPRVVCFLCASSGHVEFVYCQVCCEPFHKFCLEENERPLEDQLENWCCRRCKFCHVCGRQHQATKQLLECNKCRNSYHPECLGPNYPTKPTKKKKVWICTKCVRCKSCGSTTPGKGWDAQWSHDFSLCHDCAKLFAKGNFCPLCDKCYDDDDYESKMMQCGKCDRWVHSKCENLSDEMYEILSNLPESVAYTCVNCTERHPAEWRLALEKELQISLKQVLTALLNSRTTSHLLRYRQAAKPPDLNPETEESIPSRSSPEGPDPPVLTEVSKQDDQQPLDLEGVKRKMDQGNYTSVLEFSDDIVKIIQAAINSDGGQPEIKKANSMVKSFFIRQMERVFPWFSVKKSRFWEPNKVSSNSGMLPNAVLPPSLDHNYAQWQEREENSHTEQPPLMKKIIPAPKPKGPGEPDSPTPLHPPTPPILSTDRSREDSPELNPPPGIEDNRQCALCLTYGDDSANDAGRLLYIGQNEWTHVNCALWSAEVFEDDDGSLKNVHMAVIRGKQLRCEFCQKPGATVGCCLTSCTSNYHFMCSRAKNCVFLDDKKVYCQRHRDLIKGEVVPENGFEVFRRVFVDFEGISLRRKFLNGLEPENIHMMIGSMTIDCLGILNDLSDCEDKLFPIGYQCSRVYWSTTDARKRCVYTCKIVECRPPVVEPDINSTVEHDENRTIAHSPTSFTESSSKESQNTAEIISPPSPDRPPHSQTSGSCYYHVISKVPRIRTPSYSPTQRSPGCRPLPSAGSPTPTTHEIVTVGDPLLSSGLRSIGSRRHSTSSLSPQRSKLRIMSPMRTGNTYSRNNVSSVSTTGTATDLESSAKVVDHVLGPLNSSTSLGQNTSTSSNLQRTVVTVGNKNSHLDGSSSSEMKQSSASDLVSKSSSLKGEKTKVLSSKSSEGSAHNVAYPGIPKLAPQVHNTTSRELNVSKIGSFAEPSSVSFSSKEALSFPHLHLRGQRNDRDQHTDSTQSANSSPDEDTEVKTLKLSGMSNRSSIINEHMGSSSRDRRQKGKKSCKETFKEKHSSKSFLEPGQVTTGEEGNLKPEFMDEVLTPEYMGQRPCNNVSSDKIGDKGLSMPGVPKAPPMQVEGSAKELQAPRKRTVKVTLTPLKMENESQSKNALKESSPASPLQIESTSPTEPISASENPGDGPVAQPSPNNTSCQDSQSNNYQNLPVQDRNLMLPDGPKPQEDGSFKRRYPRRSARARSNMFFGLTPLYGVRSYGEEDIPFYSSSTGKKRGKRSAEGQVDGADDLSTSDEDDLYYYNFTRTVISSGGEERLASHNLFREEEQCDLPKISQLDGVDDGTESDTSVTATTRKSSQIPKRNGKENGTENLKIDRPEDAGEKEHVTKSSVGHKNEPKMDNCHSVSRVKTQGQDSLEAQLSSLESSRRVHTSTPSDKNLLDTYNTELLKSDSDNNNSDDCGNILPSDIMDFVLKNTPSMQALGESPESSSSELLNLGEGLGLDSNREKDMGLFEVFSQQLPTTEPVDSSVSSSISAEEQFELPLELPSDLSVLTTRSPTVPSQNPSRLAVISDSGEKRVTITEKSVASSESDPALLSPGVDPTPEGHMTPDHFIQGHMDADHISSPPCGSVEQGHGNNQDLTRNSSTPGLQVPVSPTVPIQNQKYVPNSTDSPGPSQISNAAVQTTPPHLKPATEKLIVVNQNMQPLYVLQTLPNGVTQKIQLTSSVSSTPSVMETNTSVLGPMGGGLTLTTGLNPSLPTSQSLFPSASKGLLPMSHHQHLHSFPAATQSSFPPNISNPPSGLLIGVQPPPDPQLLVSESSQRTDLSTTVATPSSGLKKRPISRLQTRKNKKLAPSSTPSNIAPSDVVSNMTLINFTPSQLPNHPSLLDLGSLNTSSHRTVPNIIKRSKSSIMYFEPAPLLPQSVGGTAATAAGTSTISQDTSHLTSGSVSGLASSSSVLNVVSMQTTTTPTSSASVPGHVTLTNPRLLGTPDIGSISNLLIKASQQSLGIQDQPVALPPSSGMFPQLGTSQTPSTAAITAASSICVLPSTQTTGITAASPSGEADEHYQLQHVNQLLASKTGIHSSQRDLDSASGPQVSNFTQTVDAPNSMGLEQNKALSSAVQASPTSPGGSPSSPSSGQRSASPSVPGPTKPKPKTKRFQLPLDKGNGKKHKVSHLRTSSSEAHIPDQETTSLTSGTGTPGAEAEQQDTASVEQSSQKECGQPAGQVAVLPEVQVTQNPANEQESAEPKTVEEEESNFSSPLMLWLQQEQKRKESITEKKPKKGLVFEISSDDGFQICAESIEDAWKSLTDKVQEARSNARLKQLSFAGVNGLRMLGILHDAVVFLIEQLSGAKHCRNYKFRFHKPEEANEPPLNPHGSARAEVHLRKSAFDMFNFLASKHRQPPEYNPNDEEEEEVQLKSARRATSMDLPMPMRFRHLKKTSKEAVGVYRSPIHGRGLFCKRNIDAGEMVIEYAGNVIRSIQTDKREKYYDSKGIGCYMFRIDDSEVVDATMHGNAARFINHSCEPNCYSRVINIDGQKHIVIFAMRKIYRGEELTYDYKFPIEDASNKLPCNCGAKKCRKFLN
# The campaign covered roughly 290,000 compounds. About 110 (0.038%) were called active. Inconclusive results, whose numbers are uncertain, are shown with a selection of clear calls. Calls follow the shape of the dose curve; as a rule, active = well fitted inhibition curve with a large enough effect in the polarisation, with a control signal flat (not every such curve was filed as active); inconclusive = small, poorly fitted or top-dose-only effect, or effect the other way, or a change in a side signal; inactive = no such curve, though single readings can be large or run the other way; the % refers to the polarisation. Where the call is inconclusive, the potency comes from a doubtful curve fit. “Side channel” marks fits to a control or component signal instead of the main read-out.
# Biological target: Histone-lysine N-methyltransferase 2A (Homo sapiens) (UniProt Q03164)
# Experiment: qHTS Fluorescence Polarization Assay for Inhibitors of MLL CXXC domain - DNA interaction
# Conditions: MLL-CXXC / FITC-HOXA9 DNA fluorescence polarization; activity change, negative = inhibition: at 115 µM (top of the series)
# Summary of the method: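 Steps: dispense CXXC domain solution (7 uM) → pin compounds or unlabeled HOX-A9 DNA control → 5 min ambient → add FLSN-HOX-A9 solution (50 nM) → spin → 30 min ambient → fluorescence polarization. Tris pH 7.5/NaCl/DTT/BSA buffer.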
# Potency is read from the fitted curve at half-maximal effect.
SMILES,Potency,"activity change, negative = inhibition"
O=c1c(Cc2c(F)cccc2Cl)c(O)ccn1CCCN1CCOCC1,"inconclusive: 11.2 µM [fluorescent, side channel, single point]",
NC(=O)C1CCN(c2ccc(S(=O)(=O)N3CCCCC3)cn2)CC1,"inconclusive: 56.2 µM [inhibitor, single point]",
CC(=O)C1=C(O)C(=O)N(c2ccc(Br)cn2)C1c1ccccc1[N+](=O)[O-] (configuration not stated),"inconclusive: 25.1 µM [fluorescent, side channel, partial curve]",
COc1ccc(C2/C=C\CN(C(=O)CC(C)C)CC(=O)N2Cc2ccc(F)cc2)cc1 (configuration not stated),"inconclusive: 31.6 µM [inhibitor, partial curve]",
O=C(Nc1ccc(F)cc1)c1nc[nH]c1C(=O)O,,inactive: -10.5%
O=C1CCN(S(=O)(=O)c2ccc(Cl)cc2)CC1,"inconclusive: 89.1 µM [quencher, side channel, single point]",
Nc1c(S(=O)(=O)O)cc(Nc2ccc(Nc3nc(Cl)nc(Nc4ccc(S(=O)(=O)O)cc4)n3)c(S(=O)(=O)O)c2)c2c1C(=O)c1ccccc1C2=O,active: 10 µM,
CC1CCCC(C)N1CC(C)(C)NS(=O)(=O)c1ccc(Cl)cc1 (configuration not stated),"inconclusive: 89.1 µM [quencher, side channel, single point]",
Nc1c(C(=O)c2ccccc2)sc2nsc(SCCN3CCOCC3)c12,"inconclusive: 56.2 µM [fluorescent, side channel, partial curve]",
CCCN(C(=O)COc1ccc(Cl)cc1Cl)c1c(N)n(Cc2ccccc2)c(=O)[nH]c1=O,"inconclusive: 70.8 µM [fluorescent, side channel, single point]",
Cc1cc(C)nc(NCCC(=O)O)n1,"inconclusive: 4.47 µM [fluorescent, side channel, partial curve]",
CC1CCCC(NC(=O)c2ccncc2)C1C (configuration not stated),,inactive: 0.734%
Cc1cc(=O)n2[nH]c(-c3ccc(Cl)cc3)cc2n1,,inactive: -2.66%
Oc1cccc(Nc2nc(NCC3CCCO3)c3ccccc3n2)c1 (configuration not stated),"inconclusive: 35.5 µM [quencher, single point]",
O=C(O)COc1ccc(NC(=O)c2ccc(NC(=O)c3ccco3)cc2)cc1,"inconclusive: 11.2 µM [fluorescent, side channel, single point]",
CC(C)c1ccccc1NC(=O)CN1C(=O)c2ccccc2C1=O,"inconclusive: 70.8 µM [fluorescent, side channel, single point]",
Cc1ccc(/C=C2\SC(=S)N(NS(=O)(=O)c3ccc(C)cc3)C2=O)cc1,"inconclusive: 50.1 µM [inhibitor, partial curve]",
O=[N+]([O-])c1cc(/C=N/O)ccc1Oc1cccc(Cl)c1,"inconclusive: 8.91 µM [inhibitor, partial curve]",
CCC(=O)Nc1cccc(NC(=O)c2cccc([N+](=O)[O-])c2C)c1,"inconclusive: 50.1 µM [fluorescent, side channel, single point]",
CC(=O)c1cccc(NC(=O)/C=C/c2ccc([N+](=O)[O-])s2)c1,,inactive: 23.3%
COc1ccc(N=C2S/C(=C\c3ccc(OCC(=O)O)cc3)C(=O)N2CCc2c[nH]c3ccccc23)cc1,,inactive: -27.3%
NNC(=O)CSc1nnc(-c2ccccc2)n1-c1ccccc1,,inactive: 6.34%
CN(C)c1ccc(/C=C2\CCC/C(=C\c3ccccc3)C2=O)cc1,"inconclusive: 39.8 µM [fluorescent, side channel, partial curve]",

# In a second layout: results already given
SMILES | Potency | activity change, negative = inhibition
CC(=O)C1=C(O)C(=O)N(c2ccc(Br)cn2)C1c1ccccc1[N+](=O)[O-] (configuration not stated) | inconclusive: 25.1 µM [fluorescent, side channel, partial curve] | 
Nc1c(S(=O)(=O)O)cc(Nc2ccc(Nc3nc(Cl)nc(Nc4ccc(S(=O)(=O)O)cc4)n3)c(S(=O)(=O)O)c2)c2c1C(=O)c1ccccc1C2=O | active: 10 µM | 
O=[N+]([O-])c1cc(/C=N/O)ccc1Oc1cccc(Cl)c1 | inconclusive: 8.91 µM [inhibitor, partial curve] | 

# (cont.)

SMILES,Potency,"activity change, negative = inhibition"
O=C(NC(=S)Nc1ccccn1)c1cncc(Br)c1,"inconclusive: 11.2 µM [fluorescent, side channel, full curve, poor fit]",
O=C(O)c1cccc(-c2ccc(/C=N/NC(=O)C3COc4ccccc4O3)o2)c1 (configuration not stated),"inconclusive: 35.5 µM [fluorescent, side channel, partial curve]",
CC(C)CNC(=S)Nc1ccccc1F,"inconclusive: 17.8 µM [fluorescent, side channel, partial curve]",
Oc1ccc(/C=N/Nc2ccnc3cc(Cl)ccc23)cc1O,"inconclusive: 31.6 µM [quencher, side channel, partial curve]",
Oc1c(C=Nc2cccnc2)sc2ccccc12,"inconclusive: 25.1 µM [fluorescent, side channel, partial curve]",
CCOC(=O)C1=C(O)/C(=C/c2cn(CC(=O)N3CCCC3)c3ccccc23)SC1=Nc1ccccc1,"inconclusive: 63.1 µM [fluorescent, side channel, single point]",
O=[N+]([O-])c1ccc(CSc2nnc(-c3cnccn3)o2)cc1,,inactive: -0.962%
COc1ccc2oc(=O)c(C(=O)C[n+]3cccc(C)c3)cc2c1,,inactive: -9.06%
COCCn1c(SCc2nc3sc(C(=O)OC)c(C)c3c(=O)[nH]2)nc2ccccc21,,inactive: 12.7%
Nc1c(C(=O)Nc2nc3ccccc3s2)sc2nc(-c3cccs3)ccc12,"inconclusive: 35.5 µM [fluorescent, side channel, partial curve]",
CCCCCn1c(N)c(-c2nc3ccccc3s2)c2c([N+](=O)[O-])nn(CC)c(=O)c21,"inconclusive: 11.2 µM [quencher, side channel, full curve, poor fit]",
COc1ccc(-c2nc(-c3ccc(O)cc3O)cs2)cc1OC,,inactive: 2.6%
N#CC(C#N)=C(N)CSc1cccc[n+]1[O-],,inactive: -4.37%
Cc1ccc(NS(=O)(=O)c2ccc3c(c2)CCC(=O)N3)cc1C,,inactive: -6.59%
CCS(=O)(=O)CCSc1nc2ccccc2o1,,inactive: 4.03%
NNC(=O)c1[nH]c2ccc([N+](=O)[O-])cc2c1-c1ccccc1,"inconclusive: 10 µM [inhibitor, single point]",
CC1CCCN(S(=O)(=O)c2ccc(C(=O)Nc3nnc(-c4ccccc4Cl)o3)cc2)C1 (configuration not stated),"inconclusive: 63.1 µM [inhibitor, single point]",
COc1ccc(/C=N/Nc2nnc(-c3ncc[nH]3)c3ccccc23)cc1,,inactive: -0.191%
O=C(N/N=C\c1ccc(COc2ccc([N+](=O)[O-])cc2)o1)c1ccc(Cl)cc1,,inactive: 56.8%
CCOC(=O)c1c(C)[nH]c(C=Nc2ccc(OC)cc2)c1O,"inconclusive: 35.5 µM [inhibitor, single point]",
CC(C)(C)c1ccc(-c2cc(N)n[nH]2)cc1,"inconclusive: 10 µM [inhibitor, single point]",
COc1cccc(/C=N/NC(=O)c2cc3c(OC)ccc(OC)c3[nH]2)c1O,"inconclusive: 31.6 µM [fluorescent, side channel, partial curve]",
O=C(NC(=S)Nn1cnc2c(cnn2-c2ccccc2)c1=O)c1ccc(Cl)cc1,"inconclusive: 11.2 µM [fluorescent, side channel, partial curve]",

SMILES,Potency,"activity change, negative = inhibition"
COc1ccccc1CCNC(=O)CC1C(=O)NCCN1CCCc1ccccc1 (configuration not stated),"inconclusive: 14.1 µM [fluorescent, side channel, partial curve]",
CCC(=O)Nc1ccc(-c2nnc(SCC(=O)NCC3CCCO3)n2C)cc1 (configuration not stated),,inactive: -1.98%
CCN1/C(=C/c2ccc3cc(C)ccc3[n+]2CC)Sc2cc(C)c(C)cc21,"inconclusive: 5.01 µM [fluorescent, side channel, full curve]",
CN=C1C=C/C(=N/N=c2\ccn(O)cc2C)C=C1C,"inconclusive: 35.5 µM [quencher, side channel, single point]",
Cc1nc(N)sc1-c1csc(Nc2ncccn2)n1,,inactive: 52.6%
CC1(c2ccccc2)NC(=O)N(CC(=O)Nc2nnc(C3CC3)s2)C1=O (configuration not stated),"inconclusive: 89.1 µM [fluorescent, side channel, single point]",
N#Cc1c(-c2cccc(Br)c2)cc(-c2cccnc2)nc1N,,inactive: 10.8%
Cc1cc(C)cc(N=Cc2[nH]c3ccc(Br)c(Cl)c3c2O)c1,"inconclusive: 3.55 µM [fluorescent, side channel, full curve]",
CCCCn1c(=O)[nH]c2nc3cc(N)ccc3nc2c1=O,"inconclusive: 7.94 µM [fluorescent, side channel, full curve]",
CC(C)C(=O)N1CCN(c2ccc(NC(=O)c3ccc([N+](=O)[O-])o3)cc2Cl)CC1,,inactive: 26.9%
CC(=O)c1c(-c2ccccc2)[nH]c2ccccc12,,inactive: 3.78%
CCOc1ccc(C(=O)O)cc1OC,,inactive: -2.38%
NC(=S)N/N=C/c1ccccc1,,inactive: 1.5%
O=S(=O)(c1ccc(F)cc1)n1ccc(-c2cccc(OCc3c(F)cccc3Cl)c2)n1,,inactive: 9.97%
CC(C)(C)c1ccc(/C=N/NC(=O)CN2CCS(=O)(=O)CC2)cc1,"inconclusive: 11.2 µM [fluorescent, side channel, single point]",
CCc1ccc(OCC(=O)NCC(c2ccc(Cl)cc2)N2CCCCC2)cc1 (configuration not stated),"inconclusive: 2.82 µM [quencher, side channel, full curve]",
O=C(/C(C=Nc1cc2c(oc1=O)CCCC2=O)=C(\O)c1ccccc1)c1ccccc1,"inconclusive: 31.6 µM [quencher, side channel, single point]",
CN(C)C(=S)c1ccc2ccccc2n1,,inactive: -10.7%
COc1ccc(Cl)cc1CN1CCN(c2nc(C)cc(C)c2C#N)CC1,"inconclusive: 39.8 µM [inhibitor, single point]",
N#Cc1ccccc1COc1cccc2c1CCCC2O (configuration not stated),"inconclusive: 39.8 µM [fluorescent, side channel, single point]",
O=C(Cc1ccccc1)c1c[nH]c(C(=O)C(Cl)(Cl)Cl)c1,"inconclusive: 31.6 µM [fluorescent, side channel, partial curve]",
